Results from the supplement of paper PMC10849652.
This is one part of the list.

By UniProt entry, the sequences of proteins in these tests, tags left out. Where a name states a change or a piece, a line headed by the entry shows the natural chain unless it says otherwise.
UniProt Q5HYK3: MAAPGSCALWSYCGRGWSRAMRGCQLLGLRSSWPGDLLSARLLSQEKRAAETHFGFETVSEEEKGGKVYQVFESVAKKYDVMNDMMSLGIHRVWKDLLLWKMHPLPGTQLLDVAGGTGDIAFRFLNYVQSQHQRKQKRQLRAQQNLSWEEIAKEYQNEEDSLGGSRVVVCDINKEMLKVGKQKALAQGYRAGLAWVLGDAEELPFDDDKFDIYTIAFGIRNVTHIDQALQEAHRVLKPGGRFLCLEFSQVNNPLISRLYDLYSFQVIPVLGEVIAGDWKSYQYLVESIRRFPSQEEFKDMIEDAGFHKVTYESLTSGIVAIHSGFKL
UniProt O95825: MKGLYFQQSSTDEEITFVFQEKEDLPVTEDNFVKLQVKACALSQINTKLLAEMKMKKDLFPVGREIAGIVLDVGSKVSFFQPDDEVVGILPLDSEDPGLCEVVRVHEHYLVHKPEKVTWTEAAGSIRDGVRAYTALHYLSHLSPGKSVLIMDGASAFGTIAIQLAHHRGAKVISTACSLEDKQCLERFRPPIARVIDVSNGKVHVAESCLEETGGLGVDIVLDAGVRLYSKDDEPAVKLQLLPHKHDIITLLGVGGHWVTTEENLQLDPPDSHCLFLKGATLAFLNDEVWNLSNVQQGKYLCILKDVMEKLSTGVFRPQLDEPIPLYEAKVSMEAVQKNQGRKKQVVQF
UniProt Q86VX2, whole entry, looked up: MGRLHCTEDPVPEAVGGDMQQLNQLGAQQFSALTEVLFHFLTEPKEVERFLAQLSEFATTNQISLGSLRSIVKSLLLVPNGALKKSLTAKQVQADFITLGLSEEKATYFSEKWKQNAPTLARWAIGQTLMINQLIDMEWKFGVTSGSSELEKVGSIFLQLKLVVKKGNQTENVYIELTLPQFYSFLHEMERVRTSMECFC
UniProt O75629: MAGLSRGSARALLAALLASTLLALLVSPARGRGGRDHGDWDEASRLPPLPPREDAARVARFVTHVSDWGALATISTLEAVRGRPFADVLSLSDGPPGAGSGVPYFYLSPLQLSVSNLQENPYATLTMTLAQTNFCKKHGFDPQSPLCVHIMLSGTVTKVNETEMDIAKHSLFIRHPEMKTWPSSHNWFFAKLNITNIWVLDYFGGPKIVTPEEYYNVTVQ
UniProt Q8N752: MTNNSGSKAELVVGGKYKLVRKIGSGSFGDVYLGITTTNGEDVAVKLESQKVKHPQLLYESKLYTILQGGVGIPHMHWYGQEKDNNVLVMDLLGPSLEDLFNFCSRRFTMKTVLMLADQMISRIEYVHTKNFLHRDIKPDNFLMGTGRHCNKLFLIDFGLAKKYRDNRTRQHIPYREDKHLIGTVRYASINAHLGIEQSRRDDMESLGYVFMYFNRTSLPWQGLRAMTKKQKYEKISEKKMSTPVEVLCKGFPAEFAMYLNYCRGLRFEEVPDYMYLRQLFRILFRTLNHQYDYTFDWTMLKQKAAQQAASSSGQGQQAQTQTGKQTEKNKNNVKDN
UniProt P31146: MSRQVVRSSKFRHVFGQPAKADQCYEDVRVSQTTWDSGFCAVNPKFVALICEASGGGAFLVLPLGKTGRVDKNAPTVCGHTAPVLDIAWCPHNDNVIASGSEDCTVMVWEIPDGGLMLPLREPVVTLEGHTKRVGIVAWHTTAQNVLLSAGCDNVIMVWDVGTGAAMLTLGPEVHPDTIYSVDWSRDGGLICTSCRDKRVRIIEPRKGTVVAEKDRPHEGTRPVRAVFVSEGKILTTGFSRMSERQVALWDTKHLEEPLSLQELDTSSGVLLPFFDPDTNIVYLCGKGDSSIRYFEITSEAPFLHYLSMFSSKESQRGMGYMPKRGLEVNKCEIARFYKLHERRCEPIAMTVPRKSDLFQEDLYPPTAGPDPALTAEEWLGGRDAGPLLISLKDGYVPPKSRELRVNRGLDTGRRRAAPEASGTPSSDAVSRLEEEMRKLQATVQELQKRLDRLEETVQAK
UniProt Q96SW2: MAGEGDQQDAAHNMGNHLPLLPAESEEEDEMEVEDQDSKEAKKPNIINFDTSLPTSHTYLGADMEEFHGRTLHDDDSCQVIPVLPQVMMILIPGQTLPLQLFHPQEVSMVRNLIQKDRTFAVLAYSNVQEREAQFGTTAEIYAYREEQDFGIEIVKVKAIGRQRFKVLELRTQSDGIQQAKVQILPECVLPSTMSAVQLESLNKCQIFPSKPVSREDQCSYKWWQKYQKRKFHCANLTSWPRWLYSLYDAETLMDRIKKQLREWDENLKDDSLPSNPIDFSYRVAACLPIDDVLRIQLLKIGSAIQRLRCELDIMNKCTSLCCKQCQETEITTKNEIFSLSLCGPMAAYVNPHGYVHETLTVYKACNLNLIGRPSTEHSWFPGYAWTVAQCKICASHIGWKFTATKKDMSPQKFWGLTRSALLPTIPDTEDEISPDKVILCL
UniProt Q17RY0: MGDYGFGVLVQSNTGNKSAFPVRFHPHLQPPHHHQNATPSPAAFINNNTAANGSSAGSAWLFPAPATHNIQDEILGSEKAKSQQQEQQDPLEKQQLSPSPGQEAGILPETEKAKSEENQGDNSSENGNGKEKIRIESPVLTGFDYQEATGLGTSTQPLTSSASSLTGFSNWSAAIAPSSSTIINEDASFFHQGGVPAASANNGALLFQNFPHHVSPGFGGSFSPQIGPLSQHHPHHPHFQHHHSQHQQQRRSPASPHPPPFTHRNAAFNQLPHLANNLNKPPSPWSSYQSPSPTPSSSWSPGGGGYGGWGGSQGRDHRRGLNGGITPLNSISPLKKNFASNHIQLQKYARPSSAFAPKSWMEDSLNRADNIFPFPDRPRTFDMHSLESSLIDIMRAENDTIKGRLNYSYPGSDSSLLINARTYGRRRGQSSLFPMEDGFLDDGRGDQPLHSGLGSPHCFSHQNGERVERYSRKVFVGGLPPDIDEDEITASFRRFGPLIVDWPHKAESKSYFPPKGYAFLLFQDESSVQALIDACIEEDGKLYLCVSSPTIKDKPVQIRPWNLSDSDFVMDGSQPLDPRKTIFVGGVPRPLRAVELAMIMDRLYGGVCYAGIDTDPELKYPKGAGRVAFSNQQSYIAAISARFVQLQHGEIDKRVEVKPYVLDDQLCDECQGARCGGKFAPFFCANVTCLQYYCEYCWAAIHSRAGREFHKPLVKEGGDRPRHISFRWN
UniProt O14548: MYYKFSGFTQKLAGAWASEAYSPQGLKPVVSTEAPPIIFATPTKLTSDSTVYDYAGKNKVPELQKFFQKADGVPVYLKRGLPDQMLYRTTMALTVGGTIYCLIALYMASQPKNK
UniProt Q14019: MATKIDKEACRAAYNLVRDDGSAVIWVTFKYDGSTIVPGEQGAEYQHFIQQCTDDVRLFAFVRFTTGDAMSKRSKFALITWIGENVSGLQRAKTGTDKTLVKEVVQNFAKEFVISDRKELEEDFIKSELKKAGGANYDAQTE
UniProt Q7L5N1: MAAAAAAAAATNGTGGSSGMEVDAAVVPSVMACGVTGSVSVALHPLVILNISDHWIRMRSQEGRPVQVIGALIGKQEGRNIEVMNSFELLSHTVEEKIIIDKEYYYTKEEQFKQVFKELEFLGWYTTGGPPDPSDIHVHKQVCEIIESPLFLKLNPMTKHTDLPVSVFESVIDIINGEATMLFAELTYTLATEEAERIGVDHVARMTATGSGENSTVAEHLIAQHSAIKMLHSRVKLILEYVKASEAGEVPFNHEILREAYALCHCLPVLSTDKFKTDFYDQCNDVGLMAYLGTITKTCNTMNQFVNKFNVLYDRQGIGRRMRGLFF
UniProt O75390: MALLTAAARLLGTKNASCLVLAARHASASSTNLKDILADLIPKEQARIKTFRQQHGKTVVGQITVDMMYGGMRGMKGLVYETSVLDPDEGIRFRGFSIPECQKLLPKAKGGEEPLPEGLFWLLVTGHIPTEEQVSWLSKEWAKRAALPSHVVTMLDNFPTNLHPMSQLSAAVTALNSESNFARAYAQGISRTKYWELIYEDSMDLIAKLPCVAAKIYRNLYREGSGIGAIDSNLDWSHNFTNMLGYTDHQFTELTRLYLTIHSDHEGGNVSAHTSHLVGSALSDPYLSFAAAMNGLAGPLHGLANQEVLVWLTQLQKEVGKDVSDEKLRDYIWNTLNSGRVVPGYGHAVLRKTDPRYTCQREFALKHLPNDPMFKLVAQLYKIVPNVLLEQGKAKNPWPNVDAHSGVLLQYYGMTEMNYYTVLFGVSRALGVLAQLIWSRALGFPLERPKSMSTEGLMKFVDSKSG
UniProt Q92793, whole entry, looked up: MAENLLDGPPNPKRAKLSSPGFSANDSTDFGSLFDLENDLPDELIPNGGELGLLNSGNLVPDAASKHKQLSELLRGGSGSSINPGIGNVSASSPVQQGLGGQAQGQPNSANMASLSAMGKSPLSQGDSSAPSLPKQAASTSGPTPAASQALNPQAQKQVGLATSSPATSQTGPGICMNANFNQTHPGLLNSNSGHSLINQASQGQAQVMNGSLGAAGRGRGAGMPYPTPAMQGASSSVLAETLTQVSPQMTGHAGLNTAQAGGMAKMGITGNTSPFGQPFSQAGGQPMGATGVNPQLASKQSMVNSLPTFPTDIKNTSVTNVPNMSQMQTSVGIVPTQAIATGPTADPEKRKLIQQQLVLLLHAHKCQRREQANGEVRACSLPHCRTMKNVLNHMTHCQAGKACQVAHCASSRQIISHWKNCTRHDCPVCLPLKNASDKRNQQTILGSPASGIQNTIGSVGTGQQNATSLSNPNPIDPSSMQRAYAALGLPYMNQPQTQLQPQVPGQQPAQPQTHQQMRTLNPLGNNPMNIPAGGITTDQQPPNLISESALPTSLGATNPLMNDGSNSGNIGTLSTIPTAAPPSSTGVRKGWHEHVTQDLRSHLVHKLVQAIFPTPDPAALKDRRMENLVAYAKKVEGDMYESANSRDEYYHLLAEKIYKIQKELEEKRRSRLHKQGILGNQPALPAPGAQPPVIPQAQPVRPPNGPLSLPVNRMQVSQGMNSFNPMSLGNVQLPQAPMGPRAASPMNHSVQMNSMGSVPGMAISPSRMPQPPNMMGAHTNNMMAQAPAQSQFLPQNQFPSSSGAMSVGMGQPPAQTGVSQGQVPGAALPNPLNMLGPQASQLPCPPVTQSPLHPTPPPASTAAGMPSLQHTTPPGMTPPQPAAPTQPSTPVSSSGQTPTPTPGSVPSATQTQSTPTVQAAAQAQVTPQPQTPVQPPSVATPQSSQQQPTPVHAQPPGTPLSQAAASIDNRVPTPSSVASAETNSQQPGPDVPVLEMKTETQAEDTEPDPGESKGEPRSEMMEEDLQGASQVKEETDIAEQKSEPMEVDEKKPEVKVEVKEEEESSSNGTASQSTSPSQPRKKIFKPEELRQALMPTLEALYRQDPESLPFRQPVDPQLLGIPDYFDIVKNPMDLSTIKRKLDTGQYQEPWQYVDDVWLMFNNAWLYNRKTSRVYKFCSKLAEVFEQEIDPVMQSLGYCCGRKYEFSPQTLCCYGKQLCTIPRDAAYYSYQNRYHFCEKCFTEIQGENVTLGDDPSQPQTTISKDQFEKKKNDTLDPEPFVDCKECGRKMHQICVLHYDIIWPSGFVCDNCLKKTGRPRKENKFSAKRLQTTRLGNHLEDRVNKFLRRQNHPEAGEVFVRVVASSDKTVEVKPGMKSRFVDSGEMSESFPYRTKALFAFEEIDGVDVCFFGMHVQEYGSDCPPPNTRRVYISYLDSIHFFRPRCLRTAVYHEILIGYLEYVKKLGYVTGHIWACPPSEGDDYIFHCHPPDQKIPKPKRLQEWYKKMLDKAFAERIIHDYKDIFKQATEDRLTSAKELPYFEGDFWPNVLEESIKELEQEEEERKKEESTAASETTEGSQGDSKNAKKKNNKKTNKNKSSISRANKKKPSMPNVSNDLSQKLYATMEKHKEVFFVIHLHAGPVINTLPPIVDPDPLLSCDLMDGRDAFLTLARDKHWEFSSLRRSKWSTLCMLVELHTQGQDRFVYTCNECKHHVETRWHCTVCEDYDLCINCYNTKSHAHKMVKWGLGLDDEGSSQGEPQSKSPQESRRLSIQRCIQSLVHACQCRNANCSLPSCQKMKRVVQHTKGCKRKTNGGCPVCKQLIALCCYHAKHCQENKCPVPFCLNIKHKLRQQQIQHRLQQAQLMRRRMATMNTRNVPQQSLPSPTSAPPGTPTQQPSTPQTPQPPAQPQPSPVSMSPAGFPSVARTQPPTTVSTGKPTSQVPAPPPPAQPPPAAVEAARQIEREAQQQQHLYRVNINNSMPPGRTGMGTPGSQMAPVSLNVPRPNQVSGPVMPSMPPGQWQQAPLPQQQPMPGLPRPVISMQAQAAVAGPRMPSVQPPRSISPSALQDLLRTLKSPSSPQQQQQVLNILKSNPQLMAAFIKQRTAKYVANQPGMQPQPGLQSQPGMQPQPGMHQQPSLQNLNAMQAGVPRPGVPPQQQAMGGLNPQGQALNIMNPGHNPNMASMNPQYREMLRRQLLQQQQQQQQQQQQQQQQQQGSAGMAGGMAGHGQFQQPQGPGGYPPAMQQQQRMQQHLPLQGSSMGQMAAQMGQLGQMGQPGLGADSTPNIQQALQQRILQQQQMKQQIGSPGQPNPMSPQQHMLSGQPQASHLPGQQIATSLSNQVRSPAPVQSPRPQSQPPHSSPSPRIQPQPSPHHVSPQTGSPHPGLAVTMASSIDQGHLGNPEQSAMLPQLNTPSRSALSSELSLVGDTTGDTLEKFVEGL

Legend:
Test in all cases: log2 fold change, soluble protein after heating vs DMSO (PISA); higher = thermal stabilisation; K562 cells, 10 uM, 30 min; active = over 0.2 and 3.5 SD of the protein, either way, in both replicates (recomputed)
[1] = compound: C1=CC=C(C=C1)[C@H](COC2=CC3=C(C=C2)NC(=O)N3)NC(=O)C4=CC=CN(C4=O)CC5=CC(=C(C=C5)F)F
In short: (§1)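 Soluble protein was defined as the supernatant after 21,000xg for 90 min. It came from K562 cells at 2×10^6 cells/mL given 10 μM compound for 30 min, heated in aliquots for 3 min across 48°C-58°C, pooled, and extracted in PBS with 0.5% NP-40 at 4°C, and was quantified by TMTpro 16plex LC-MS/MS with equalised channel sums. Thermal stability against control samples, from duplicates, is reported as log2 fold change.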

[2] = compound: CC1=C(SC2=C1C(=N[C@H](C3=NN=C(N32)C)CC(=O)N)C4=CC=C(C=C4)Cl)C
In short: as §1

[3] = compound: CC1=C2C(=CC=C1)N=C(N(C2=O)C3=CC=CC=C3C)CN4C=NC5=C(N=CN=C54)N
In short: as §1

[4] = compound: Cc1sc2c(c1C)C(c1ccc(Cl)cc1)=N[C@@H](CC(=O)OC(C)(C)C)c1nnc(C)n1-2
In short: as §1

[5] = compound: c1ccc([C@@H]2C[C@H]2NC2CCNCC2)cc1
In short: as §1

Measured: log2 fold change

CRYM-AS1 (UniProt A6NIL9)
inactive: [1] -0.295 | [2] 0.037 | [3] 0.297 | [4] -0.201 | [5] -0.002

COQ5 (UniProt Q5HYK3)
inactive: [1] 0.008 | [2] 0.049 | [3] 0.064 | [4] 0.072 | [5] -0.016

CRYZL1 (UniProt O95825)
inactive: [1] 0.01 | [2] -0.002 | [3] 0.016 | [4] 0.023 | [5] 0.027

COMMD7 (UniProt Q86VX2)
inactive: [1] 0.021 | [2] -0.007 | [3] 0.069 | [4] 0.031 | [5] 0.021

CPED1 (UniProt A4D0V7)
inactive: [1] 0.023 | [2] -0.036 | [3] 0.039 | [4] 0.004 | [5] 0.04

CREG1 (UniProt O75629)
inactive: [1] 0.09 | [2] 0.027 | [3] 0.107 | [4] -0.049 | [5] -0.014

CSNK1G3 (UniProt Q9Y6M4)
inactive: [1] 0.054 | [2] -0.074 | [3] 0.049 | [4] 0 | [5] -0.058

CSNK1A1L (UniProt Q8N752)
inactive: [1] -0.056 | [2] -0.169 | [3] -0.033 | [4] 0.042 | [5] 0.216

CSNK1A1 (UniProt P48729)
inactive: [1] 0.048 | [2] 0 | [3] 0.008 | [4] 0.046 | [5] 0.02

CPSF6 isoform 2 (UniProt Q16630)
inactive: [1] 0.036 | [2] -0.038 | [3] 0.048 | [4] 0.02 | [5] -0.016

CORO1A (UniProt P31146)
inactive: [1] 0.007 | [2] 0.065 | [3] 0.045 | [4] -0.024 | [5] -0.04

CRIP2 isoform 2 (UniProt P52943)
inactive: [1] 0.061 | [2] -0.22 | [3] 0.034 | [4] 0.069 | [5] 0.03

CPOX (UniProt P36551)
inactive: [1] -0.007 | [2] 0 | [3] 0.056 | [4] -0.021 | [5] 0.027

CRBN (UniProt Q96SW2)
inactive: [1] -0.004 | [2] 0.017 | [3] 0.021 | [4] -0.031 | [5] 0.143

Random excerpt: two records from the list, in no set order.
CPSF6 isoform 2 (UniProt Q16630)
inactive: [1] 0.036 | [2] -0.038 | [3] 0.048 | [4] 0.02 | [5] -0.016

CRYM-AS1 (UniProt A6NIL9)
inactive: [1] -0.295 | [2] 0.037 | [3] 0.297 | [4] -0.201 | [5] -0.002

(continued)

CPEB4 (UniProt Q17RY0)
inactive: [1] 0.011 | [2] -0.069 | [3] -0.113 | [4] 0.016 | [5] -0.039

COX7A2L (UniProt O14548)
inactive: [1] 0.05 | [2] 0.115 | [3] 0.099 | [4] -0.102 | [5] 0.04

COX19 (UniProt Q49B96)
inactive: [1] -0.014 | [2] 0.002 | [3] 0.02 | [4] -0.062 | [5] -0.003

COTL1 (UniProt Q14019)
inactive: [1] -0.055 | [2] 0.062 | [3] 0.01 | [4] -0.023 | [5] -0.041

COPS6 (UniProt Q7L5N1)
inactive: [1] -0.028 | [2] 0.02 | [3] -0.028 | [4] -0.003 | [5] 0.016

CORO2A (UniProt Q92828)
inactive: [1] -0.057 | [2] -0.041 | [3] 0.061 | [4] 0.045 | [5] 0.071

CS (UniProt O75390)
inactive: [1] -0.043 | [2] 0.089 | [3] 0.053 | [4] -0.015 | [5] -0.016

CREBBP (UniProt Q92793)
inactive: [1] -0.019 | [2] 0.081 | [3] 0.003 | [4] -0.009 | [5] -0.019

COMTD1 (UniProt Q86VU5)
inactive: [1] -0.048 | [2] 0.027 | [3] 0.087 | [4] -0.026 | [5] -0.023

CPT2 (UniProt P23786)
inactive: [1] -0.402 | [2] 0.19 | [3] 0.155 | [4] -0.017 | [5] -0.026
